According to the supplement of paper PMC6411743:
± gives the standard deviation of the averaged measurements. Only a part is listed here, and it is no random draw. Most entries show no effect beyond the scatter of the controls.

By UniProt entry, the sequences of proteins in these tests, tags left out. Where a name states a change or a piece, a line headed by the entry shows the natural chain unless it says otherwise.
UniProt P49642: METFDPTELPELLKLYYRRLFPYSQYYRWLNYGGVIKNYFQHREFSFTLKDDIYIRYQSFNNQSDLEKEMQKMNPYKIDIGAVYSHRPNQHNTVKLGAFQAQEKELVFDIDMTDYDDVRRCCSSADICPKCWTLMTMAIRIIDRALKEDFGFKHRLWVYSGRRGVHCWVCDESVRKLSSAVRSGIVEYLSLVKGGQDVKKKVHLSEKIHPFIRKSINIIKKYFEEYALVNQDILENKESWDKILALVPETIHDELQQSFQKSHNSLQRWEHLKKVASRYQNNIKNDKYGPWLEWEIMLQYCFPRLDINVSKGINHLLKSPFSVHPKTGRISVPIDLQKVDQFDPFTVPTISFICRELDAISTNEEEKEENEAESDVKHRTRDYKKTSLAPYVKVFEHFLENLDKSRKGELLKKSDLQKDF
UniProt P38398, whole entry, looked up: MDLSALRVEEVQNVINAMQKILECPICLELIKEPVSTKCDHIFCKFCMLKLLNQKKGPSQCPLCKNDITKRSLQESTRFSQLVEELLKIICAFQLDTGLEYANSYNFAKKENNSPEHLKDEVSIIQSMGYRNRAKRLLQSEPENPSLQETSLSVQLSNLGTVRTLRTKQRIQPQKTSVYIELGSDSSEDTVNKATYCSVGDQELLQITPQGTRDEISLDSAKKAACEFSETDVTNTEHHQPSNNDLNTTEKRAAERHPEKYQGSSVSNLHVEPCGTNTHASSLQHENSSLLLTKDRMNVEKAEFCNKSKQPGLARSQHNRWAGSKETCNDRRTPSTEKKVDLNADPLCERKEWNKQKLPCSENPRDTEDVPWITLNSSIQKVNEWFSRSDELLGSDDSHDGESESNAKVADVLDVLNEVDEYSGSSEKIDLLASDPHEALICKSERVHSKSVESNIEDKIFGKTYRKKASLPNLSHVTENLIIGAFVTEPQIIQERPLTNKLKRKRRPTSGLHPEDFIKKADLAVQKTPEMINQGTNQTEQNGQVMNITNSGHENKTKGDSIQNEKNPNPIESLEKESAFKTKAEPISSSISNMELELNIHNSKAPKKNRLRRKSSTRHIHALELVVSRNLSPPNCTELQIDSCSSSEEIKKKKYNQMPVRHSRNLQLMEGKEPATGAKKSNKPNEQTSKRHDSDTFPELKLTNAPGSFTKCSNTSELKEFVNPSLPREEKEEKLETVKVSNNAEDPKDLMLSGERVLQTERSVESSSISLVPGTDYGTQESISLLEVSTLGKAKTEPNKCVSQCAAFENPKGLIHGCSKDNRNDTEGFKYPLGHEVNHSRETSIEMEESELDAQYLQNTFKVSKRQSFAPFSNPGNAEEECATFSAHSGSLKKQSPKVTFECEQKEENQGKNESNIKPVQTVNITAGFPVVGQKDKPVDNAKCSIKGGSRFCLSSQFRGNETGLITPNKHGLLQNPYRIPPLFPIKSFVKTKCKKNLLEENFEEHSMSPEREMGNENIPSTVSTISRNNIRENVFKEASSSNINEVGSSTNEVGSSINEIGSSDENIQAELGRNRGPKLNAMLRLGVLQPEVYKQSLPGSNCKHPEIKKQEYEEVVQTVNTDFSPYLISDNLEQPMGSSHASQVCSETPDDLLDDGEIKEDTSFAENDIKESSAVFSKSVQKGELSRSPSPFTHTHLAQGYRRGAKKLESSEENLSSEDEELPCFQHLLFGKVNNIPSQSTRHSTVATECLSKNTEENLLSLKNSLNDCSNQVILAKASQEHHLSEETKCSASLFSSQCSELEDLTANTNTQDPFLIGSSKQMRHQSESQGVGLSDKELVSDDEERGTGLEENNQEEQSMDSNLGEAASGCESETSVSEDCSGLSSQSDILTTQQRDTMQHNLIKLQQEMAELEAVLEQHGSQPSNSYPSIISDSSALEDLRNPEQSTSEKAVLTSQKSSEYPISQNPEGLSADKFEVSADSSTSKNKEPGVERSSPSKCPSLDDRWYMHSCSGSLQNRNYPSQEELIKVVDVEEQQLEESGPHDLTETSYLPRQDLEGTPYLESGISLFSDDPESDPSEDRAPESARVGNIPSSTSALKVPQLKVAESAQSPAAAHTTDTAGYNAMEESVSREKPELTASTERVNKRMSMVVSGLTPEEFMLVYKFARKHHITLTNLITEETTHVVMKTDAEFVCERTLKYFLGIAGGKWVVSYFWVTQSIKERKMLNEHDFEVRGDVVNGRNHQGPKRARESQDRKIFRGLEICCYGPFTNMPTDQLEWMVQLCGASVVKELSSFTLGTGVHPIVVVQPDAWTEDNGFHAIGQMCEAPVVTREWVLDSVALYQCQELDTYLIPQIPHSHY
UniProt P41212: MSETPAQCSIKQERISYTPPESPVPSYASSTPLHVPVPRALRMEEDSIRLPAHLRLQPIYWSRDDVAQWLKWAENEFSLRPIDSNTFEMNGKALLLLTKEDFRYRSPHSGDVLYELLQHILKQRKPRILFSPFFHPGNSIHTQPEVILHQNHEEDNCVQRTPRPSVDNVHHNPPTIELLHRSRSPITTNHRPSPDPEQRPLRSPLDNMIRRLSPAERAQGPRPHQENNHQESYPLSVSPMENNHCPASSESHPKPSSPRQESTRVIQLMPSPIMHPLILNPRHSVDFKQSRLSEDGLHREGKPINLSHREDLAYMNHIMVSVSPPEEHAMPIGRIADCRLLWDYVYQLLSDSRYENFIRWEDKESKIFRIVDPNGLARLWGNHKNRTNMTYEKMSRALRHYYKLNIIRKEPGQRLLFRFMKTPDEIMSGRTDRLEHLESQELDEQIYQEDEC
UniProt P46527, whole entry: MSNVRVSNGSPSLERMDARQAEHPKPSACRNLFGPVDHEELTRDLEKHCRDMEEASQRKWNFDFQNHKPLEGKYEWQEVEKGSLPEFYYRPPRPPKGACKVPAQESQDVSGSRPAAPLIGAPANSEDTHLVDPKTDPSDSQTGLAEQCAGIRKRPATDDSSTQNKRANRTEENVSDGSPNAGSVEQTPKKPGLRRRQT
UniProt P48735: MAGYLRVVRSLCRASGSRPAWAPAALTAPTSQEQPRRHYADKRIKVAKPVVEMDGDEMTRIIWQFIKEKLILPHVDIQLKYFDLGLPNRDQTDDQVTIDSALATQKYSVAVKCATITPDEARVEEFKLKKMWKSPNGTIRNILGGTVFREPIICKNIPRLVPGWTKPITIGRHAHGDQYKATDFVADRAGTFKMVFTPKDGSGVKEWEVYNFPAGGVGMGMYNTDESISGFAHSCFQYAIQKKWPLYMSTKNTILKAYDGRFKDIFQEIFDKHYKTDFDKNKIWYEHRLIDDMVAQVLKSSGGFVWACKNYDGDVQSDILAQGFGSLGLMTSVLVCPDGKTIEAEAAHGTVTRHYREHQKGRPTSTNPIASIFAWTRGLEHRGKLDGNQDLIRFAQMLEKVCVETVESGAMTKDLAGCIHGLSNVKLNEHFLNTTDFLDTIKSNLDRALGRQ
UniProt P41252: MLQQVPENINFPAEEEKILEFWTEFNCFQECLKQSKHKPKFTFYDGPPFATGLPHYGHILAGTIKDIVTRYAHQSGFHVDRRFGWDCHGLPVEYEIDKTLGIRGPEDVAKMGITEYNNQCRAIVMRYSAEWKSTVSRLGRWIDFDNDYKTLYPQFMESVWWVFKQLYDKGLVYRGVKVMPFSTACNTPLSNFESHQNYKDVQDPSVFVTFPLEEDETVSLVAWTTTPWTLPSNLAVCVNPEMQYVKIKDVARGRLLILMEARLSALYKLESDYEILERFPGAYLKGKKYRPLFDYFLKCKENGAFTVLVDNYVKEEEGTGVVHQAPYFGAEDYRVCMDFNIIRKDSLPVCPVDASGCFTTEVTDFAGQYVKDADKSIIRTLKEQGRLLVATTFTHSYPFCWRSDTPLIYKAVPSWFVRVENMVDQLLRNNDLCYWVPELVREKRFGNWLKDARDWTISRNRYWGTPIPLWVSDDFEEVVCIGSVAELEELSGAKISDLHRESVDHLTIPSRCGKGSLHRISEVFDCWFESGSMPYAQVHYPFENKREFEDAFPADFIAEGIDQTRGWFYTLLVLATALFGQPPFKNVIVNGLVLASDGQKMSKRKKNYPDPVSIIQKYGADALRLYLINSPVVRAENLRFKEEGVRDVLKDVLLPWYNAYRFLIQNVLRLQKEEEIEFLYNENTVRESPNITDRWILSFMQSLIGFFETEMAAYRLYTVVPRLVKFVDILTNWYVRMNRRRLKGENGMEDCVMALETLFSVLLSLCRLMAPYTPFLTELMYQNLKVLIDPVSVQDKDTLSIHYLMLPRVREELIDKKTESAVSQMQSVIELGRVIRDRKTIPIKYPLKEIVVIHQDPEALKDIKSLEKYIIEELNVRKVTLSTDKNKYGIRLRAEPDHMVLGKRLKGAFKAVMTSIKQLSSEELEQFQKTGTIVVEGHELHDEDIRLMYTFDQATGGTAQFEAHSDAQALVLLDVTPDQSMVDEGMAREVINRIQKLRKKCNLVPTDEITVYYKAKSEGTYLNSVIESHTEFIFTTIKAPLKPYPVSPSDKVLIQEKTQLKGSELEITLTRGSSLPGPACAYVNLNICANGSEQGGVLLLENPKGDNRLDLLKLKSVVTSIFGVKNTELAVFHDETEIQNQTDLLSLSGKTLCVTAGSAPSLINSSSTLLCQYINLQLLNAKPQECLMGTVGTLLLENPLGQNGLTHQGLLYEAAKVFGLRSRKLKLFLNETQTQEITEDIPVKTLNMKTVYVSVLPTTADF
UniProt P49643: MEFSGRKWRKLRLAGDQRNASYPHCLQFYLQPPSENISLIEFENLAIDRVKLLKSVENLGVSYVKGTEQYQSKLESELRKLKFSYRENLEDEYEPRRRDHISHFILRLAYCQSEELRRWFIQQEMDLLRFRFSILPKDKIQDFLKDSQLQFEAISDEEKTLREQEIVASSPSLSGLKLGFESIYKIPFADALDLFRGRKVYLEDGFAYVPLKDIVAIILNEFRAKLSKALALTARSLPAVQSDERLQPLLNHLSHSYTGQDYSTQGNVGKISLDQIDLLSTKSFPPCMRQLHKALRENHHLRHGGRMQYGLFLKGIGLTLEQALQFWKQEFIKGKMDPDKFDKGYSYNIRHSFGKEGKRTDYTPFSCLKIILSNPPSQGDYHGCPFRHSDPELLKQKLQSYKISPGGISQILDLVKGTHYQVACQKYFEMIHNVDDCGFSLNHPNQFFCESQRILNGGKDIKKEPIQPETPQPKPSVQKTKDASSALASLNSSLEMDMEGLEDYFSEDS
UniProt P52594: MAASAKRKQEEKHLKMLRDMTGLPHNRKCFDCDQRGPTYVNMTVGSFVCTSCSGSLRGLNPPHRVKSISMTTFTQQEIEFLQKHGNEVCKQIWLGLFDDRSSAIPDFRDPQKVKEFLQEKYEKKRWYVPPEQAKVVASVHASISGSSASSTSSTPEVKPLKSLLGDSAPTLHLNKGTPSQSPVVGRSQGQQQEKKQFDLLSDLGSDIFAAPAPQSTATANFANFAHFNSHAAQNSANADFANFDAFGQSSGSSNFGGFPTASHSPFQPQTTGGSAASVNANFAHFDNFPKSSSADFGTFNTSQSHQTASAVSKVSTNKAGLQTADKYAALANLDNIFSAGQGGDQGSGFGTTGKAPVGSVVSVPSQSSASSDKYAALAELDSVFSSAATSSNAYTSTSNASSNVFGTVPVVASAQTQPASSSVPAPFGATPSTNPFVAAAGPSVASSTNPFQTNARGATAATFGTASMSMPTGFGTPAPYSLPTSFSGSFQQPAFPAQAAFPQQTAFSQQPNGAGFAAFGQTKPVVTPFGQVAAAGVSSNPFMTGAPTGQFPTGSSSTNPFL
UniProt P49711: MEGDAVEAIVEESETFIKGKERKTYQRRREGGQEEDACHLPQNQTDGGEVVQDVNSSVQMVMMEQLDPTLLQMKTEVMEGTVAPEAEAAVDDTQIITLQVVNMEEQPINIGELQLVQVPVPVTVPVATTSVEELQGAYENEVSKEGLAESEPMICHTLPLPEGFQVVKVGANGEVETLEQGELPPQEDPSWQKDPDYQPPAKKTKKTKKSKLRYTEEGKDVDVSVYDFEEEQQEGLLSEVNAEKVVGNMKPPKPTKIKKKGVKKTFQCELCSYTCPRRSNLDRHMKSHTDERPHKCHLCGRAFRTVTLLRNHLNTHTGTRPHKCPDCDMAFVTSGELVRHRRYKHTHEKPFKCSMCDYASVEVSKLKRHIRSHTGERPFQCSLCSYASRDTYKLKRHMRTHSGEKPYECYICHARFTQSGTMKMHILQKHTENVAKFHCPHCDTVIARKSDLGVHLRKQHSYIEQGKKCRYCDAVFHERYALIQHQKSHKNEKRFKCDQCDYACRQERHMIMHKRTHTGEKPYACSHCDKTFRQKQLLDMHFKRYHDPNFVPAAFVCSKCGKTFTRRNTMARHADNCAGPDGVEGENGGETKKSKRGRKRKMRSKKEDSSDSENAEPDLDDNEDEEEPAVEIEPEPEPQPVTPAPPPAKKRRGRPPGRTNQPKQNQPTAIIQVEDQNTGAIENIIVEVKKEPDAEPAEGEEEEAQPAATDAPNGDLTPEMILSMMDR

Compound: Nc1ncnc2c1ncn2[C@@H]1O[C@H](COP(=O)(O)OP(=O)(O)OP(=O)(O)O)[C@@H](O)[C@H]1O [adenosine triphosphate]
Assay: NP40-soluble protein abundance relative to vehicle (solubility fold change) (ratio); higher = more soluble protein in presence of ATP
Outline: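 Values are fold changes against the detergent-processed vehicle, based on vsn-normalised intensities. Jurkat crude lysate was treated at eight concentrations from 0.1 to 10 mM (10 min at room temperature, then 3 min at 37 °C), solubilised with 0.8% NP40 and benzonase, ultracentrifuged and analysed by TMT-labelled LC-MS/MS over three independent experiments.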

Target	NP40-soluble protein abundance (concentration: 0.1mM)	NP40-soluble protein abundance (concentration: 0.5mM)	NP40-soluble protein abundance (concentration: 1mM)	NP40-soluble protein abundance (concentration: 2mM)	NP40-soluble protein abundance (concentration: 4mM)	NP40-soluble protein abundance (concentration: 6mM)	NP40-soluble protein abundance (concentration: 8mM)	NP40-soluble protein abundance (concentration: 10mM)
UniProt P49748 and related entries	1.03 ± 0.046	1.016 ± 0.0095	0.997 ± 0.081	0.989 ± 0.064	0.983 ± 0.027	0.934 ± 0.083	0.986 ± 0.015	0.973 ± 0.045
UniProt P50750-2|P50750	1.05 ± 0.053	1.14 ± 0.06	1.18 ± 0.047	1.26 ± 0.047	1.38 ± 0.018	1.47 ± 0.13	1.64 ± 0.058	1.7 ± 0.1
PRIM1 (UniProt P49642)	0.976 ± 0.056	1.01 ± 0.041						
UniProt P51157 and related entries	1.03 ± 0.028	1.05 ± 0.036						
UniProt P38398 and related entries	1.02 ± 0.02	1.02 ± 0.035	1.02 ± 0.011	1.05 ± 0.071	1.03 ± 0.035	1.03 ± 0.086	1.02 ± 0.081	1.06 ± 0.03
SSR4 (UniProt P51571)	1.06 ± 0.065	1.04 ± 0.06						
ZAP70 (UniProt P43403)	1.06 ± 0.077	1.08 ± 0.082						
PIK3CG (UniProt P48736)	0.998 ± 0.067	0.961 ± 0.051						
ETV6 (UniProt P41212)	1.18 ± 0.081	1.21 ± 0.051						
IGHMBP2 (UniProt P38935)	1.12 ± 0.062	1.31 ± 0.058	1.41 ± 0.11	1.59 ± 0.088	1.84 ± 0.09	2.01 ± 0.13	2.19 ± 0.2	2.4 ± 0.14
UniProt P50213 and related entries	1 ± 0.058	1.01 ± 0.047	0.98 ± 0.039	0.963 ± 0.04	0.922 ± 0.036	0.95 ± 0.058	0.949 ± 0.057	0.932 ± 0.043
CCT8 (UniProt P50990)	0.97 ± 0.046	0.997 ± 0.075	0.976 ± 0.029	0.909 ± 0.033	0.823 ± 0.036	0.86 ± 0.12	0.842 ± 0.081	0.835 ± 0.063
UniProt P51608-2	0.9758 ± 0.0089	1.04 ± 0.035						
UniProt P51114 and related entries	1.15 ± 0.046	1.464 ± 0.013	1.644 ± 0.0088	1.79 ± 0.041	2.03 ± 0.048	2.17 ± 0.11	2.32 ± 0.039	2.4 ± 0.045
UniProt P49761 and related entries	1.13 ± 0.08	1.25 ± 0.014	1.317 ± 0.008	1.56 ± 0.035	1.54 ± 0.018	1.43 ± 0.13	1.81 ± 0.23	2.065 ± 0.019
UBA7 (UniProt P41226)	1.06 ± 0.057	0.974 ± 0.082						
CDKN1B (UniProt P46527)	0.953 ± 0.075	0.922 ± 0.1	0.964 ± 0.099	0.998 ± 0.057	0.985 ± 0.08	1.09 ± 0.077	0.919 ± 0.071	0.916 ± 0.1
IDH2 (UniProt P48735)	0.954 ± 0.15	1.038 ± 0.0008						
PHKA2 (UniProt P46019)	1.02 ± 0.058	1.02 ± 0.066	0.975 ± 0.071	0.9386 ± 0.0054	0.92 ± 0.033	0.932 ± 0.087	0.95 ± 0.028	0.919 ± 0.029
RPL27A (UniProt P46776)	0.912 ± 0.11	0.923 ± 0.14						
ARL3 (UniProt P36405)	0.993 ± 0.046	0.967 ± 0.017	0.978 ± 0.0088	0.944 ± 0.057	0.937 ± 0.057	0.926 ± 0.066	0.945 ± 0.037	0.946 ± 0.049
VAMP7 (UniProt P51809)	0.998 ± 0.058	1 ± 0.041	0.955 ± 0.046	0.958 ± 0.05	0.938 ± 0.028	0.894 ± 0.1	0.943 ± 0.044	0.945 ± 0.044
IARS (UniProt P41252)	1.04 ± 0.063	1.04 ± 0.024	1.1 ± 0.14	1 ± 0.072	0.974 ± 0.058	0.905 ± 0.059	1.05 ± 0.035	0.975 ± 0.078
PRIM2 (UniProt P49643)	1.03 ± 0.023	1.04 ± 0.033	1.03 ± 0.057	1.02 ± 0.025	1.02 ± 0.032	1 ± 0.034	1.02 ± 0.028	1.03 ± 0.047
RBM34 (UniProt P42696)	1.08 ± 0.04	1.13 ± 0.074	1.16 ± 0.026	1.21 ± 0.059	1.4 ± 0.097	1.57 ± 0.1	1.7 ± 0.18	1.85 ± 0.21
UniProt P52757 and related entries	0.89 ± 0.12	0.932 ± 0.095	0.952 ± 0.13	0.971 ± 0.14	1 ± 0.23	0.948 ± 0.094	0.989 ± 0.091	0.983 ± 0.12
UniProt P52594 and related entries	0.975 ± 0.015	0.975 ± 0.027	0.945 ± 0.033	0.961 ± 0.012	0.963 ± 0.019	0.987 ± 0.037	0.93 ± 0.052	0.918 ± 0.033
TPMT (UniProt P51580)	1.03 ± 0.092	1.03 ± 0.061	1 ± 0.084	1 ± 0.077	0.985 ± 0.064	0.954 ± 0.12	0.992 ± 0.057	0.979 ± 0.044
UniProt P49903 and related entries	1.03 ± 0.038	1.04 ± 0.082	1 ± 0.039	0.992 ± 0.02	0.962 ± 0.049	0.979 ± 0.068	0.966 ± 0.052	0.96 ± 0.042
CTCF (UniProt P49711)	1.05 ± 0.04	1.04 ± 0.032	1.02 ± 0.027	0.993 ± 0.036	0.972 ± 0.034	0.895 ± 0.046	0.927 ± 0.032	0.894 ± 0.027

Random excerpt: two records from the list
Target	NP40-soluble protein abundance (concentration: 0.1mM)	NP40-soluble protein abundance (concentration: 0.5mM)	NP40-soluble protein abundance (concentration: 1mM)	NP40-soluble protein abundance (concentration: 2mM)	NP40-soluble protein abundance (concentration: 4mM)	NP40-soluble protein abundance (concentration: 6mM)	NP40-soluble protein abundance (concentration: 8mM)	NP40-soluble protein abundance (concentration: 10mM)
CDKN1B (UniProt P46527)	0.953 ± 0.075	0.922 ± 0.1	0.964 ± 0.099	0.998 ± 0.057	0.985 ± 0.08	1.09 ± 0.077	0.919 ± 0.071	0.916 ± 0.1
IDH2 (UniProt P48735)	0.954 ± 0.15	1.038 ± 0.0008						
